Assay results reported in the supplement of paper PMC12067093, “Discovery and optimisation of a covalent ligand for TRIM25 and its application to targeted protein ubiquitination” (Chemical Science, 2025).
The other results are listed elsewhere or left out.

Amino acid sequences for entries named in this document (tags omitted). A change or cut given only in a name is not applied to a line headed by its entry.
UniProt P11766: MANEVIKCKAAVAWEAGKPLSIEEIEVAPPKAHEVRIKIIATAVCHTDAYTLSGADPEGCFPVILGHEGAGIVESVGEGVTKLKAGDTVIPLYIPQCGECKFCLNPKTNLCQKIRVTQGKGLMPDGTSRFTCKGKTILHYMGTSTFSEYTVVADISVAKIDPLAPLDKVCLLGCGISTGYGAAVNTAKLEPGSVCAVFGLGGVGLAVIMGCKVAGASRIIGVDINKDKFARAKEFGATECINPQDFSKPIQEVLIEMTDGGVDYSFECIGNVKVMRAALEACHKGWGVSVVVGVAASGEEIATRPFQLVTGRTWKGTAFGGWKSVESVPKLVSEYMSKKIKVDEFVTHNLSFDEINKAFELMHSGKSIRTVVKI
UniProt Q9H2P0: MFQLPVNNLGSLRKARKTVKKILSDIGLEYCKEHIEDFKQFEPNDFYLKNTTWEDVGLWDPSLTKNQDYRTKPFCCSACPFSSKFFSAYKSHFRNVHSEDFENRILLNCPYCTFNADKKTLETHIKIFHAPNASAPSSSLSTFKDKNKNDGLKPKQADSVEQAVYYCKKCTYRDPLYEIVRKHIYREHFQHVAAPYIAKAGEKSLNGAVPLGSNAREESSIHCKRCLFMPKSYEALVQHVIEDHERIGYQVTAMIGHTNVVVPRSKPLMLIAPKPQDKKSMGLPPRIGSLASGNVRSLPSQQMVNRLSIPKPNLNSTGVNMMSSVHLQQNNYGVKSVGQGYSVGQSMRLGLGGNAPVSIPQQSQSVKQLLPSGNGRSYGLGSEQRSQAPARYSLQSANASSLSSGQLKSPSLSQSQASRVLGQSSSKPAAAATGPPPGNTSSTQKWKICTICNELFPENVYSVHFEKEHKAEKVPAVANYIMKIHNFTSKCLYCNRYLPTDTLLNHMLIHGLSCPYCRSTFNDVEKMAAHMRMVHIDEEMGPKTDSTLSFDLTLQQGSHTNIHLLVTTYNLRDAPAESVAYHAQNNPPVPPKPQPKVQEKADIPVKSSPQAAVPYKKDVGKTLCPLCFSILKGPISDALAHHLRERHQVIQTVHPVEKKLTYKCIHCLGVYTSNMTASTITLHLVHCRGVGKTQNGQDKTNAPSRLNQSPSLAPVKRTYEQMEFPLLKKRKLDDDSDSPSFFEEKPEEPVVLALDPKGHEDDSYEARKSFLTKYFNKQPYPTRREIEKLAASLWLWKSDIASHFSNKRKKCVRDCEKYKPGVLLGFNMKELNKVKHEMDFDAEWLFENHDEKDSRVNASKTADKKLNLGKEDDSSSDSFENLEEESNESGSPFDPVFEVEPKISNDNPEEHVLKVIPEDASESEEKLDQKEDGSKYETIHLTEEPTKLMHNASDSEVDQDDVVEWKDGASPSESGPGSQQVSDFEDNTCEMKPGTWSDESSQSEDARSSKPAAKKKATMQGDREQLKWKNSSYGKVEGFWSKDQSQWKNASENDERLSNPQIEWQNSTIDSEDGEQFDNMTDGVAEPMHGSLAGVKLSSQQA
UniProt O96019, whole entry, looked up: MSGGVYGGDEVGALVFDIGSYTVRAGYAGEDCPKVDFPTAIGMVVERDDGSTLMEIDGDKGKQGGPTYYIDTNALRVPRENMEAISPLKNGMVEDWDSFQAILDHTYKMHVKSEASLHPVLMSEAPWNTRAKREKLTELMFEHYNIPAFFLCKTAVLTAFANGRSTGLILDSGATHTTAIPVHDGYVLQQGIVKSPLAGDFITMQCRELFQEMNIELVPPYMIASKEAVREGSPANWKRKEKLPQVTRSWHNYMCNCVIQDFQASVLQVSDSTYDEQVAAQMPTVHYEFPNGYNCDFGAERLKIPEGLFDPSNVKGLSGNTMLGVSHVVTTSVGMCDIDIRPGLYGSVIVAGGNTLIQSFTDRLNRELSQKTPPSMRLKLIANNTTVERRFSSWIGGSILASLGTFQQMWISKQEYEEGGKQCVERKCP
UniProt Q9NZK5: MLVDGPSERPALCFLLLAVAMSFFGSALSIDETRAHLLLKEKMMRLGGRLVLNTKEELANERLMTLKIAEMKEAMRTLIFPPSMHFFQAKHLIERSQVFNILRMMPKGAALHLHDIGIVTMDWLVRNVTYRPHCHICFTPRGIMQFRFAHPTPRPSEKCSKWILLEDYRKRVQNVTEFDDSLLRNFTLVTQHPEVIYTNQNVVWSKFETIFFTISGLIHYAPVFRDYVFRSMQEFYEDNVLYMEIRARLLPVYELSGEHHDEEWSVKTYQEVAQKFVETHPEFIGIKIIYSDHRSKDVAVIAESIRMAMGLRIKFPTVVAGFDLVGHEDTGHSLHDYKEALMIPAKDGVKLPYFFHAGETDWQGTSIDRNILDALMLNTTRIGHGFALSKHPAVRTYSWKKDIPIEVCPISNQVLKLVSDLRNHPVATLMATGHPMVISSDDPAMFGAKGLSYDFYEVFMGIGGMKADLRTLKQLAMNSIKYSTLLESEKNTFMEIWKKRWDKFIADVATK
UniProt O14672: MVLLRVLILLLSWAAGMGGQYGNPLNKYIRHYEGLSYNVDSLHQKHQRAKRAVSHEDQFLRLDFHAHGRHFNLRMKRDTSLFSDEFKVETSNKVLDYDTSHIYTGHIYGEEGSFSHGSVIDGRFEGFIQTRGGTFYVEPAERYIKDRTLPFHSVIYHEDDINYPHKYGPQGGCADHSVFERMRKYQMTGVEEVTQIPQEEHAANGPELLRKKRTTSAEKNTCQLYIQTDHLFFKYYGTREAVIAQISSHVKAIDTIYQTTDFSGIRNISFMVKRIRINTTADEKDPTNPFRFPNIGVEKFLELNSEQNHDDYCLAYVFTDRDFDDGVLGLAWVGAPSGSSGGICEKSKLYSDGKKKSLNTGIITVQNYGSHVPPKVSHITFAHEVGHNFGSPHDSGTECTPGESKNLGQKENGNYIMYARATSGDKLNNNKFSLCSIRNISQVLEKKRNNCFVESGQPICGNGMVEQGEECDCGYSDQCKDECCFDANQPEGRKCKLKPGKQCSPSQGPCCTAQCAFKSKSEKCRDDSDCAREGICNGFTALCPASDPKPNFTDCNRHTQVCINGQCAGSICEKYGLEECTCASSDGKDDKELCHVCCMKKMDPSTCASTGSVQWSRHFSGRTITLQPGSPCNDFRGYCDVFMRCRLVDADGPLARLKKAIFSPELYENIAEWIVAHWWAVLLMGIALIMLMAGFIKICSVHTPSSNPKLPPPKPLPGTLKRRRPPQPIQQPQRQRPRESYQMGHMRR
UniProt O60488: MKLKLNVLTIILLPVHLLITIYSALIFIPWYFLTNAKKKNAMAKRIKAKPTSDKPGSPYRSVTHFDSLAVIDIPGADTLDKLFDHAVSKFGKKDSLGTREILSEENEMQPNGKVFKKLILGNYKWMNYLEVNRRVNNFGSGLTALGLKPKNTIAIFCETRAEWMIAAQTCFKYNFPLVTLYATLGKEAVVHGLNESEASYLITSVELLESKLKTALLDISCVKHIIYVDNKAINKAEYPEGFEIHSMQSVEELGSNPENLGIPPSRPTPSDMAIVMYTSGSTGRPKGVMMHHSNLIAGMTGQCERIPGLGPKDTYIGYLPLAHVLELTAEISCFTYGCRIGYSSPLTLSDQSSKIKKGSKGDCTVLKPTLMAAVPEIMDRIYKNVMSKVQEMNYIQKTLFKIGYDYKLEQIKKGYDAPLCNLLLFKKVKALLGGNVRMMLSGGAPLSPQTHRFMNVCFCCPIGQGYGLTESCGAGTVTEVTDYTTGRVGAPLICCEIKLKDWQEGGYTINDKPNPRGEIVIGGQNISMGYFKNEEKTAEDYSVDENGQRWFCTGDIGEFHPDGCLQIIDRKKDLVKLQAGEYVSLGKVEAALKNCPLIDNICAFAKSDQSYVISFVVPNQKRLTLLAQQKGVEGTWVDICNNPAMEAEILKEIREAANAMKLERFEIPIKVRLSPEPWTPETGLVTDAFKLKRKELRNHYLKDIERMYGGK
UniProt P55265: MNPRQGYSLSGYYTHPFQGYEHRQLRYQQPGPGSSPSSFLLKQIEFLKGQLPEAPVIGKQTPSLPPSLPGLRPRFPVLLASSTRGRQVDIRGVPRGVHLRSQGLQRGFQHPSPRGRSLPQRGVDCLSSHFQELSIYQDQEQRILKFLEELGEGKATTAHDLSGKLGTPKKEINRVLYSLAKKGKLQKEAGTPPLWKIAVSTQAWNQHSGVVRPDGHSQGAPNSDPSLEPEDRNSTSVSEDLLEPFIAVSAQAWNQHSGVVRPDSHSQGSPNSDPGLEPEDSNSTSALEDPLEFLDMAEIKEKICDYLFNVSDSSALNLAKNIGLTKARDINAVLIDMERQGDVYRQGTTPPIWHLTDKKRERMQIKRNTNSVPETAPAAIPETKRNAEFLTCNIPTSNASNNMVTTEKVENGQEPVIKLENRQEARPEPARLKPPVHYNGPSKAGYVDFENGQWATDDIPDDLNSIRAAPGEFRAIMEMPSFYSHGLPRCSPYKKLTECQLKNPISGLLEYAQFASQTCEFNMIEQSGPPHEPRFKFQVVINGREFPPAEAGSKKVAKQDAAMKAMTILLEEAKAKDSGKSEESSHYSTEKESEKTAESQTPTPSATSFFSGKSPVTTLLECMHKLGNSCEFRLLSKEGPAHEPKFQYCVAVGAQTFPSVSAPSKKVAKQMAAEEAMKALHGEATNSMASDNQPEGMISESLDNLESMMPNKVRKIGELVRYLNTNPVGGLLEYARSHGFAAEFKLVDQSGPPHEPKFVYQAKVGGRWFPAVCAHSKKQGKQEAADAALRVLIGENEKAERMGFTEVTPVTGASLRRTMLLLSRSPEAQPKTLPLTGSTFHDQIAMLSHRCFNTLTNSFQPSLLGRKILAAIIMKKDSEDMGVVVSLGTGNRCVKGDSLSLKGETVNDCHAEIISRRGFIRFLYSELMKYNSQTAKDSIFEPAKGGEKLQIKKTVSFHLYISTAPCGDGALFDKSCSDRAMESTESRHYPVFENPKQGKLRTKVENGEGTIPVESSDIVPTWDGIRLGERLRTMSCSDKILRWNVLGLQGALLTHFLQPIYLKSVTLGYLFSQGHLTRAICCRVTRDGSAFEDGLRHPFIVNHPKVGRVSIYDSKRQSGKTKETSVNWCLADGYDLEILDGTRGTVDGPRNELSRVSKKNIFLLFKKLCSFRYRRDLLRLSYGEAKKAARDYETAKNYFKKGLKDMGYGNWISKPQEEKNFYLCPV
UniProt Q9BRR6: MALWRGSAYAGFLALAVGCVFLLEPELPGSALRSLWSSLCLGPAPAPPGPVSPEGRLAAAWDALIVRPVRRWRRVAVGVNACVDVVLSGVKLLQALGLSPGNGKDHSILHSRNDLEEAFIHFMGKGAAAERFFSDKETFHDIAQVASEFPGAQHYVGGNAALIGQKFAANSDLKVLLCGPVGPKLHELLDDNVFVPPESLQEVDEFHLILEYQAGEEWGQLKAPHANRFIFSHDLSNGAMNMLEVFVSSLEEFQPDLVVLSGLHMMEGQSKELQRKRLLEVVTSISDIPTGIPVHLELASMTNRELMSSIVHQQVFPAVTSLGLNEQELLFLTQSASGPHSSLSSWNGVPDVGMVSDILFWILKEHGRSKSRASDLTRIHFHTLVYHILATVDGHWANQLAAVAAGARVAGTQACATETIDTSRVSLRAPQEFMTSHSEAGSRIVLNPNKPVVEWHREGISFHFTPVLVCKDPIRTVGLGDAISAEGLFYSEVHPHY
UniProt Q53H12: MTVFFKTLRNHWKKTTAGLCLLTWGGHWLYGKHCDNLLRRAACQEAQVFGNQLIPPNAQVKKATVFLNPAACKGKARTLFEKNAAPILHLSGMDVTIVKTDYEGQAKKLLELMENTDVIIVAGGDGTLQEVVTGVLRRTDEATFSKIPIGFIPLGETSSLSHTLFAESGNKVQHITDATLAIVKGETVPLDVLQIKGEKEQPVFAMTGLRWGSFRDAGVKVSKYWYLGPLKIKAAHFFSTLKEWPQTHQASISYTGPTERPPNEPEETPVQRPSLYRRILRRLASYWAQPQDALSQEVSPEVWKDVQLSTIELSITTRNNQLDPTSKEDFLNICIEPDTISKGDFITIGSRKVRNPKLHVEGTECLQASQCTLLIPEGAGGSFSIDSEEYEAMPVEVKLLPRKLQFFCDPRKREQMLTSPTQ
UniProt P30566: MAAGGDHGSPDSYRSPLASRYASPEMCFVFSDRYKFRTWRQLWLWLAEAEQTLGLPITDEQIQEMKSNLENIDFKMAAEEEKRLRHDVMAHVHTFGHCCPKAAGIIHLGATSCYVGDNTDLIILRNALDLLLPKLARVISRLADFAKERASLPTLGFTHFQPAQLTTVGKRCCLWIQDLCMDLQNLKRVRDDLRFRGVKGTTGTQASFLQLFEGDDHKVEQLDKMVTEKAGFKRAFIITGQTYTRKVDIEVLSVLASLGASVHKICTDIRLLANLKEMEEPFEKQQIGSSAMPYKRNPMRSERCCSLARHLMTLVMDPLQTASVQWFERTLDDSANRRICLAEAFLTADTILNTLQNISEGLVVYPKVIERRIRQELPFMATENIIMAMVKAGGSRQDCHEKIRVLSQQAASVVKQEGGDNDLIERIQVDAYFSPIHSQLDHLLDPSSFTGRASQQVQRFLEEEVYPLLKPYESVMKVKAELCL

Compound: CC1Cc2ccccc2N1C(=O)C1CCCN(C1)C(=O)CCl (mixture of isomers) [TRIM25 ligand 11 (diastereomer mixture)]
Assay: probe-labelled cysteine peptide fold change vs DMSO (competition) (log2 fold change); higher = less target engagement (more negative = stronger competition)
Settings: THP-1, incubation time: 4 h
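Also: competitive chemoproteomic profiling in live THP-1 cells with an iodoacetamide desthiobiotin (IA-DTB) probe, comparing probe-labelled peptide intensities in compound-treated cells against DMSO-treated controls.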

Target	probe-labelled cysteine peptide fold change (10 µM)	probe-labelled cysteine peptide fold change (50 µM)
ACSL5_Q9ULC5_288_CVEHAYEPTPDDVAISYLPLAHMFER (UniProt Q9ULC5)	0.248	0.0966
ADH5_P11766_111_TNLCQK (UniProt P11766)	0.0149	-0.0362
ADNP_Q9H2P0_79_TKPFCCSACPFSSK (UniProt Q9H2P0)	-0.0632	0.0404
ACTR3_P61158_408_KDYEEIGPSICR (UniProt P61158)	-0.117	-0.152
ACTL6A_O96019_152_LTELMFEHYNIPAFFLCK (UniProt O96019)	-0.0461	0.0154
ADA2_Q9NZK5_408_DIPIEVCPISNQVLK (UniProt Q9NZK5)	0.0772	-0.158
ADAM10_O14672_484_DECCFDANQPEGR (UniProt O14672)	0.0781	-0.081
ADO_Q96SZ5_183_SRAEYTEASGPCILTPHR (UniProt Q96SZ5)	0.000339	0.423
AGFG1_P52594_89_HGNEVCK (UniProt P52594)	0.0105	0.0833
ADAM10_O14672_607_DDKELCHVCCMKKMDPSTCASTGSVQWSR (UniProt O14672)	-0.0506	0.00492
ADRM1_Q16186_80_TSGNVEDDLIIFPDDCEFKR (UniProt Q16186)	-0.147	-0.133
ADNP_Q9H2P0_167_QADSVEQAVYYCK (UniProt Q9H2P0)	0.182	0.139
ACSL4_O60488_221_TALLDISCVK (UniProt O60488)	0.106	0.108
ADH5_P11766_100_AGDTVIPLYIPQCGECK (UniProt P11766)	0.0491	-0.0475
ADAR_P55265_649_FQYCVAVGAQTFPSVSAPSKK (UniProt P55265)	-0.0879	-0.0992
AFTPH_Q6ULP2_659_IFEACFPSILVPDAEEEVTSLK (UniProt Q6ULP2)	-0.105	-0.236
ADGRL2_O95490_807_TMMGYWSTQGCK (UniProt O95490)	0.0591	0.0285
ACSL4_O60488_494_VGAPLICCEIK (UniProt O60488)	0.0302	0.00888
AGAP3_Q96P47_263_KQQLAIGPCK (UniProt Q96P47)	-0.14	-0.334
ACSL3_O95573_450_LLLCGGAPLSATTQR (UniProt O95573)	0.00352	0.039

Another view of part of the listing above:
ACTL6A_O96019_152_LTELMFEHYNIPAFFLCK (UniProt O96019)
  probe-labelled cysteine peptide fold change (10 µM) = -0.0461
  probe-labelled cysteine peptide fold change (50 µM) = 0.0154
ADA2_Q9NZK5_408_DIPIEVCPISNQVLK (UniProt Q9NZK5)
  probe-labelled cysteine peptide fold change (10 µM) = 0.0772
  probe-labelled cysteine peptide fold change (50 µM) = -0.158
ADAM10_O14672_484_DECCFDANQPEGR (UniProt O14672)
  probe-labelled cysteine peptide fold change (10 µM) = 0.0781
  probe-labelled cysteine peptide fold change (50 µM) = -0.081

Following part:

Target	probe-labelled cysteine peptide fold change (10 µM)	probe-labelled cysteine peptide fold change (50 µM)
ADGRA2_Q96PE1_1147_LTNLQLAQSQVCEAGAAAGGEGEPEPAGTR (UniProt Q96PE1)	0.0413	-0.116
ADPGK_Q9BRR6_415_VAGTQACATETIDTSR (UniProt Q9BRR6)	0.074	-0.0384
ADPRHL2_Q9NX46_132_CRDVFEPAR (UniProt Q9NX46)	0.0406	-0.0411
AGK_Q53H12_72_KATVFLNPAACK (UniProt Q53H12)	-0.221	-0.136
ACSL1_P33121_311_ATENTVNPCPDDTLISFLPLAHMFER (UniProt P33121)	-0.0683	-0.177
ADSS_P30520_338_CGWLDLVLLK (UniProt P30520)	0.0282	0.182
ADD1_P35611_253_CGLLPISPEALSLGEVAYHDYHGILVDEEEK (UniProt P35611)	0.0917	0.0709
ADAM15_Q13444_583_DAICGQLQCQTGR (UniProt Q13444)	-0.0132	0.0611
ACTR6_Q9GZN1_210_EDVCYVSQDFYR (UniProt Q9GZN1)	0.125	0.0682
ADSL_P30566_180_CCLWIQDLCMDLQNLK (UniProt P30566)	0.0708	0.312
ADSL_P30566_98+99_HDVMAHVHTFGHCCPK (UniProt P30566)	-0.126	-0.119
ADAR_P55265_1036_TMSCSDK (UniProt P55265)	0.0166	-0.00474
ADH5_P11766_170_VCLLGCGISTGYGAAVNTAK (UniProt P11766)	0.318	0.0674
ACTR2_P61160_11_VVVCDNGTGFVK (UniProt P61160)	0.0257	-0.158
ACSF3_Q4G176_86_LCGCVGGDLREER (UniProt Q4G176)	0.162	0.259
ADPGK_Q9BRR6_470_EGISFHFTPVLVCKDPIR (UniProt Q9BRR6)	-0.273	-0.117
ADH5_P11766_240_EFGATECINPQDFSK (UniProt P11766)	-0.0174	-0.0498
ACSL5_Q9ULC5_322_IVQAVVYSCGAR (UniProt Q9ULC5)	-0.449	0.334
AFG3L2_Q9Y4W6_402_NAPCILFIDEIDAVGR (UniProt Q9Y4W6)	0.16	0.129
